# According to PubChem BioAssay AID1487 (National Center for Advancing Translational Sciences (NCATS), 2009):
# Some of the results follow. The main result of the screen is listed elsewhere. These columns were measured beside it and carry no call. Compounds called inactive in the main read-out are mostly missing here. Potencies come from curve fits of mixed quality, noted in brackets.
# Assay: qHTS Assay for Modulators of Lamin A Splicing
# Conditions: HeLa LMNA splicing GFP/RFP minigene ratio, 48 h
# How it was run: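 S3 HeLa cells stably expressing lamin A-EGFP splicing minigene plus DsRed2, 600 cells/well, 48 h compound exposure at 37C. Laser-scanning cytometry; analysed as GFP (500-530 nm)/RFP (575-640 nm) total intensity ratio; 0.5% DMSO vehicle.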
# [1] = measured here: GFP splicing reporter channel
# [2] = measured here: RFP viability control channel
SMILES,AC50 [1],AC50 [2]
CSc1nc(C)cc(OCCNS(=O)(=O)c2cc(C)ccc2C)n1,"15.8 µM [rising, single point]","20 µM [rising, single point]"
CCCCCCN=CC1=C(O)CC(C)(C)CC1=O,"14.1 µM [rising, single point]",–
CCC(=O)N(CCC(Cc1ccccc1)c1ccc2c(c1)OCO2)Cc1ccccc1F (stereo not drawn),–,"17.8 µM [falling, partial curve, poor fit]"
COc1cccc2c(=O)c3cccc(N)c3[nH]c12,"12.6 µM [rising, partial curve, poor fit]","15.8 µM [rising, partial curve, poor fit]"
C=CCn1c(Cc2cccs2)nnc1SCC(=O)Nc1cc(OC)cc(OC)c1,"5.01 µM [rising, partial curve, poor fit]","17.8 µM [rising, partial curve]"
CCOc1ccccc1N(CC(=O)NCCSc1ccccc1)S(C)(=O)=O,"35.5 µM [rising, partial curve, poor fit]","5.01 µM [rising, single point]"
CCN(CC)CCNCc1cc(Cl)ccc1OCc1ccccc1F,"12.6 µM [falling, single point]","4.47 µM [falling, partial curve]"
S=C(NCc1cccs1)Nc1ccccc1Cl,"20 µM [rising, single point]","35.5 µM [rising, single point]"
c1ccc(-c2ncc3c(ccc4ccccc43)n2)cc1,–,"20 µM [rising, partial curve, poor fit]"
Cc1oc(C)c2c(=O)ccc3c(c12)OC(N)=C(C#N)C3c1ccc(F)cc1 (stereo not drawn),–,"1.12 µM [falling, partial curve, poor fit]"
O=C1/C(=C/c2c[nH]c3ccccc23)CCC/C1=C\c1c[nH]c2ccccc12,"35.5 µM [falling, single point]","35.5 µM [falling, single point]"
O=C(OCc1cncs1)c1cccs1,"5.62 µM [falling, single point]",–
c1coc(CN2CN=C(Nc3nc4ccccc4s3)NC2)c1,–,"22.4 µM [rising, partial curve, poor fit]"
O=C(Nc1ccc(Br)cc1)c1cccc(N2C(=O)C3C4CCC(C4)C3C2=O)c1 (stereo not drawn),"5.01 µM [rising, partial curve]","15.8 µM [rising, partial curve]"
Cc1ccc(C(=O)COc2cccc(NC(=O)c3ccco3)c2)cc1,–,"12.6 µM [rising, single point]"
CN(C)/C=C/C(=O)c1ccc(Oc2ccccc2)cc1,"0.00447 µM [falling, full curve, poor fit]",–
COCCCNC(=S)N/N=C/c1cccc(OC)c1O,"0.0708 µM [falling, full curve]","0.1 µM [falling, full curve]"
CNS(=O)(=O)c1cccc(C(=O)OCC(=O)/C=C2/N(C)c3ccccc3C2(C)C)c1,"4.47 µM [rising, partial curve]","11.2 µM [rising, partial curve]"
COc1ccc(CNC(=O)C(c2ccco2)N(Cc2ccccc2)C(=O)Cc2cccs2)cc1 (stereo not drawn),"35.5 µM [rising, single point]","31.6 µM [rising, single point]"
COc1cccc(CN(Cc2ccco2)S(=O)(=O)c2ccc(S(=O)(=O)NCc3ccccc3)cc2)c1OC,"10 µM [rising, single point]","11.2 µM [rising, partial curve]"
C/C(=N\Nc1ccc(Cl)c(Cl)c1)c1ccc(-n2ccnc2)cc1,"35.5 µM [rising, single point]","35.5 µM [rising, partial curve]"
CCCCNC(=O)C(CC)Sc1nc2ccccc2c(=O)n1CCc1ccc(OC)c(OC)c1 (stereo not drawn),–,"22.4 µM [falling, partial curve, poor fit]"
COc1ccc(C(=O)CC2OC(=O)c3ccccc32)cc1OC (stereo not drawn),–,"31.6 µM [rising, single point]"
Cc1ccc(O)c(C(=O)c2cc(C(=O)NCCc3ccccc3)c(=O)n(CCc3ccccc3)c2)c1,–,"11.2 µM [rising, partial curve, poor fit]"
CCOC(=O)C1=C(C)N(C)C(=S)NC1c1ccc(Cl)cc1 (stereo not drawn),–,"35.5 µM [rising, single point]"
CC(C)(C)c1cc(CCC(=O)NNC(=S)NC(=O)c2ccccc2)cc(C(C)(C)C)c1O,–,"4.47 µM [rising, full curve, poor fit]"
Clc1ccccc1-c1nc(NCc2cccs2)c2ccccc2n1,"17.8 µM [falling, partial curve, poor fit]","31.6 µM [falling, single point]"

SMILES,AC50 [1],AC50 [2]
Cc1ccc(-n2c(C)cc(/C=C3\NC(=O)NC3=O)c2C)c(C)c1,–,"35.5 µM [rising, single point]"
Cc1cc(N2CCCC2=O)cc(C)c1S(=O)(=O)NCCOc1ccccc1,"35.5 µM [rising, single point]","28.2 µM [rising, single point]"
CCS(=O)(=O)c1ccc2oc(SCC(=O)NC(C)C3CC4CCC3C4)nc2c1 (stereo not drawn),–,"35.5 µM [rising, single point]"
COc1cc(-c2cc(OC)c3c(C)oc(C)c3c(=O)c2)ccc1OC(=O)c1cccc(Cl)c1,"20 µM [falling, partial curve, poor fit]",–
Cc1ccccc1C(=O)Nc1cccc(NC(=O)Cn2cnc3c(=O)n(C)c(=O)n(C)c32)c1,"15.8 µM [falling, single point]",–
Oc1c(Cl)cccc1C=Nc1cc(C(F)(F)F)ccc1N1CCCC1,–,"10 µM [rising, single point]"
COc1ccc(N2CCN(c3csc4ccccc4c3=O)CC2)cc1,"7.94 µM [rising, partial curve, poor fit]",–
O=C(c1cccs1)N(Cc1cc2ccccc2[nH]c1=O)c1ccccc1,"11.2 µM [rising, single point]","14.1 µM [rising, partial curve]"
CCOC(=O)c1c(NC(=O)C(=O)N/N=C/c2ccc(O)c(OC)c2)sc2c1CCCCC2,"14.1 µM [rising, single point]","22.4 µM [rising, single point]"
OCCCc1cn(-c2ccccc2)c2ccccc12,"0.0224 µM [rising, full curve, poor fit]",–
Cn1nccc1C(=O)NCc1ccc2c(c1)CCN2C(=O)c1ccc(Cl)cc1,"10 µM [falling, partial curve, poor fit]","8.91 µM [falling, partial curve, poor fit]"
O=C1NC2(CCCCC2)C(=O)N1Cc1ccc([N+](=O)[O-])cc1,–,"0.398 µM [rising, full curve, poor fit]"
CN1/C(=C\C(=O)c2cccnc2)C(C)(C)c2ccccc21,–,"10 µM [rising, partial curve]"
CCN(CC)S(=O)(=O)c1ccc2oc(SCC(=O)NCc3ccccc3)nc2c1,–,"35.5 µM [rising, single point]"
CC(C)(C)c1nc(SCC(=O)N2CCCC2)c2ccccc2n1,"0.398 µM [rising, partial curve]","1.12 µM [rising, partial curve]"
O=S(=O)(Nc1nc2ccccc2s1)c1ccc(Cl)s1,–,"11.2 µM [rising, single point]"
O=C(COc1ccc2ccccc2c1)Nc1cccc2cccnc12,"20 µM [rising, partial curve, poor fit]","15.8 µM [rising, single point]"
COc1ccc(CNc2cc(-c3ccccc3C)ncn2)c(OC)c1,"11.2 µM [falling, partial curve]","11.2 µM [falling, partial curve, poor fit]"
COc1ccc(-c2nn(-c3ccccc3)cc2/C=N/N2C(=O)CSC2=S)cc1,–,"35.5 µM [rising, single point]"
COC(=O)c1c(NC(=O)COC(=O)[C@@H](NS(=O)(=O)c2ccc(C)cc2)C(C)C)sc2c1CCC2,–,"31.6 µM [rising, single point]"
Cc1ncc(CO)c(CN)c1O,–,"0.447 µM [rising, single point]"
CC(C)Oc1ccc(NC(=O)Oc2ccccc2)cc1,"6.31 µM [rising, single point]","5.62 µM [rising, single point]"
O=C(Cn1cc([N+](=O)[O-])cn1)NCc1ccc(-n2cccn2)cc1,–,"5.62 µM [rising, single point]"
COc1ccc(-c2cn(/N=C/c3ccc(Cl)cc3Cl)c(N)n2)cc1,–,"17.8 µM [rising, single point]"
O=C(NC1CCCC1)C(c1ccc(N2CCOCC2)cc1)N(Cc1ccco1)C(=O)c1ccco1 (stereo not drawn),–,"6.31 µM [rising, single point]"
CCCCCCCCCCCCCCCCCCNC(=O)OCC(COP(=O)([O-])OCC[n+]1ccsc1)OC (stereo not drawn),"5.01 µM [falling, full curve, poor fit]","20 µM [falling, partial curve, poor fit]"
CN(C)CCCN=Cc1c(-c2ccccc2)[nH]n(-c2nc3ccccc3s2)c1=O,"0.0891 µM [falling, full curve]","0.1 µM [falling, full curve, poor fit]"

# Shown bar-delimited: part of the list above
SMILES | AC50 [1] | AC50 [2]
O=S(=O)(Nc1nc2ccccc2s1)c1ccc(Cl)s1 | – | 11.2 µM [rising, single point]
O=C(COc1ccc2ccccc2c1)Nc1cccc2cccnc12 | 20 µM [rising, partial curve, poor fit] | 15.8 µM [rising, single point]
